Measurements reported in paper doi:10.1101/2020.12.18.423453.
These are yes or no findings as the source states them, for the method shown. For some assays here: In cells and extracts the contact can be indirect. Some binding calls cover weakened binding; strength is not graded here. For some assays here: Where a sequence is shown, tags or fusion partners need not be part of it.

B1: RodZ, BACTH fusion (protein, UniProt Q8DMX7 1-276)
chain: MTSMRKKTIGEVLRLARINQGLSLDELQKKTEIQLDMLEAMEADDFDQLPSPFYTRSFLKKYAWAVELDDQIVLDAYDSGSMITYEEVDVDEDELTGRRRSSKKKKKKTSFLPLFYFILFALSILIFVTYYVWNYIQTQPEEPSLSNYSVVQSTSSTSSVPHSSSSSSSSIESAISVSGEGNHVEIAYKTSKETVKLQLAVSDVTSWVSVSESELEGGVTLSPKKKSAEATVATKSPVTITLGVVKGVDLTVDNQTVDLSKLTAQTGQITVTFTKN

Tests used:
[1] = target: Flag-tagged EloR (Streptococcus pneumoniae R6); experiment: co-IP
[2] = target: EloR (Elongasome Regulating protein), BACTH fusion (Streptococcus pneumoniae R6); experiment: two-hybrid

Molecule | binding [1] | binding [2]
GFP-tagged HlpA (from UniProt A0ACD7PRL6 1-91) | no binding | 
B1 |  | binds
